Counter-ions that a name gives are not always drawn. At least one compound was matched to its structure with a doubt left.
Target: T1, recombinant guanylate cyclase reporter cell line (Rattus norvegicus, UniProt P19686+P20595)
T1 construct: expressed in transfected cells
T1 sequence (P19686 1-690): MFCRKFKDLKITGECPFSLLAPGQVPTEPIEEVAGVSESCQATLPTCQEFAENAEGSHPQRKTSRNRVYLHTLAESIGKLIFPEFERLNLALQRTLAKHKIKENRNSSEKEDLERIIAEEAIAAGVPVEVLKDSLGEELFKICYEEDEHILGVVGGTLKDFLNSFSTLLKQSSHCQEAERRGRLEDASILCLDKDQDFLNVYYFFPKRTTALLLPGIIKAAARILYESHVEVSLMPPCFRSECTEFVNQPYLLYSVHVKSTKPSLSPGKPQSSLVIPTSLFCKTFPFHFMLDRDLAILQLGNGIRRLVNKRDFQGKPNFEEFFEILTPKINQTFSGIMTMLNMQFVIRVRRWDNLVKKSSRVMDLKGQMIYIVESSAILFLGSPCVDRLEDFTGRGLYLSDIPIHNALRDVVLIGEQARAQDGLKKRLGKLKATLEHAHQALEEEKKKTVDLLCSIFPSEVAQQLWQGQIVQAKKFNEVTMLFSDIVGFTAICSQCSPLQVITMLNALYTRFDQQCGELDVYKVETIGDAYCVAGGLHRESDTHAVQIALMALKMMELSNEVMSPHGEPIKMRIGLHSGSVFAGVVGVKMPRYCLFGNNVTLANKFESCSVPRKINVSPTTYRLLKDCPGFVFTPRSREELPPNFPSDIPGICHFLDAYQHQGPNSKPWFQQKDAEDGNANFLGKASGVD
T1 sequence (P20595 1-619): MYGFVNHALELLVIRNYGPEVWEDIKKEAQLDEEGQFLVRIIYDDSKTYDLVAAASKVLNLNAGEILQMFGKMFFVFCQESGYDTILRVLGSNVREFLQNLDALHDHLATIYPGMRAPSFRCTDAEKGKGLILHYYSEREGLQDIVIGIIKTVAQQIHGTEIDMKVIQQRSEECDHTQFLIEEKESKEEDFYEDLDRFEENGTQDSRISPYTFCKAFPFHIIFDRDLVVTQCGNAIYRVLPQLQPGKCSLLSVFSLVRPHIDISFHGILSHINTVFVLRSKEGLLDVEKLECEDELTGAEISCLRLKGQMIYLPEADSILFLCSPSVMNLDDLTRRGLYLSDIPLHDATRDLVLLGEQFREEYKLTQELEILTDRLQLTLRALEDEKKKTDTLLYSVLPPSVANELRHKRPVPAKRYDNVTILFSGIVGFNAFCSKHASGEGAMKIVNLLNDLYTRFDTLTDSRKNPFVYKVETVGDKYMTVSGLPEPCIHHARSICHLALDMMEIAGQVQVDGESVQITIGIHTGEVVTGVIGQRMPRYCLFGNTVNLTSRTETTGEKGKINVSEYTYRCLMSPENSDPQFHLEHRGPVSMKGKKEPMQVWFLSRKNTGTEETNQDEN
Test: Effect on a recombinant guanylate cyclase reporter cell line (B-2)
Type: cell-based
Conditions: MEC = minimum effective concentration, in some cases mean values for individual determinations
Experimental: B-2. Effect on a Recombinant Guanylate Cyclase Reporter Cell Line
The cellular activity of the compounds according to the invention is determined using a recombinant guanylate cyclase reporter cell line, as described in F. Wunder et al., Anal. Biochem. 339, 104-112 (2005).
Representative MEC values (MEC=minimum effective concentration) for the compounds of the invention are shown in Table 1 below (in some cases as mean values for individual determinations): […]

Cc1nc2c(OCc3c(F)ccc(F)c3F)cccn2c1-c1nc(NCC(C)(C)N)c2c(n1)NC(=O)C2(C)C [Example 31, 4-[(2-Amino-2-methylpropyl)amino]-5,5-dimethyl-2-{2-methyl-8-[(2,3,6-trifluorobenzyl)oxy]imidazo[1,2-a]pyridin-3-yl}-5,7-dihydro-6H-pyrrolo[2,3-d]pyrimidin-6-one formate] showed an MEC of 0.3 µM.

Source: patent US9688699B2, “3-(pyrimidine-2-yl)imidazo[1,2-a]pyridines” (Bayer Pharma Aktiengesellschaft, priority 2014, dated 2017)
